The text below walks through data of article PMC5109252.

One assay deals with T1, FLAG-SETD3 (UniProt Q86TU7).
T1 sequence: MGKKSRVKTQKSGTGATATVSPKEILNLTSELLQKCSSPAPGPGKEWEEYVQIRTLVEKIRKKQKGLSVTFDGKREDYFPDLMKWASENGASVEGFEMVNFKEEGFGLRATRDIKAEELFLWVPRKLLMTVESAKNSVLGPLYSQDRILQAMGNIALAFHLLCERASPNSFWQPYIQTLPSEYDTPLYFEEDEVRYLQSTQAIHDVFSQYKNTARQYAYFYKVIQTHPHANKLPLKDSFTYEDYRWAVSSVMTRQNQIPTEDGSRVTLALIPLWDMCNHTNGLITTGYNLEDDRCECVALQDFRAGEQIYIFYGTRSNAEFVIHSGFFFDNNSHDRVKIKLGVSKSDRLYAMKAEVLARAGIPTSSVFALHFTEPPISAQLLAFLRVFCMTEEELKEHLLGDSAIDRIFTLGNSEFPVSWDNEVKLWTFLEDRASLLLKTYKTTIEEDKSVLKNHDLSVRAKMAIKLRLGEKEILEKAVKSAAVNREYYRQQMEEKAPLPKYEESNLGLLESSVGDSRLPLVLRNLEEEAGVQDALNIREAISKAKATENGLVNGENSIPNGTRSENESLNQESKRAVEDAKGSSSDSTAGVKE
Put plainly: co-IP; protein-protein ChIP: transfected HEK-293T cells cross-linked, soluble chromatin fraction immunoprecipitated with FLAG M2 beads, western blot; empty plasmid as control; normoxic and hypoxic conditions (Fig. 7A).

Assay [1] deals with T2, FoxM1 printed on the human ProtoArray (human) (UniProt Q08050).
T2 sequence: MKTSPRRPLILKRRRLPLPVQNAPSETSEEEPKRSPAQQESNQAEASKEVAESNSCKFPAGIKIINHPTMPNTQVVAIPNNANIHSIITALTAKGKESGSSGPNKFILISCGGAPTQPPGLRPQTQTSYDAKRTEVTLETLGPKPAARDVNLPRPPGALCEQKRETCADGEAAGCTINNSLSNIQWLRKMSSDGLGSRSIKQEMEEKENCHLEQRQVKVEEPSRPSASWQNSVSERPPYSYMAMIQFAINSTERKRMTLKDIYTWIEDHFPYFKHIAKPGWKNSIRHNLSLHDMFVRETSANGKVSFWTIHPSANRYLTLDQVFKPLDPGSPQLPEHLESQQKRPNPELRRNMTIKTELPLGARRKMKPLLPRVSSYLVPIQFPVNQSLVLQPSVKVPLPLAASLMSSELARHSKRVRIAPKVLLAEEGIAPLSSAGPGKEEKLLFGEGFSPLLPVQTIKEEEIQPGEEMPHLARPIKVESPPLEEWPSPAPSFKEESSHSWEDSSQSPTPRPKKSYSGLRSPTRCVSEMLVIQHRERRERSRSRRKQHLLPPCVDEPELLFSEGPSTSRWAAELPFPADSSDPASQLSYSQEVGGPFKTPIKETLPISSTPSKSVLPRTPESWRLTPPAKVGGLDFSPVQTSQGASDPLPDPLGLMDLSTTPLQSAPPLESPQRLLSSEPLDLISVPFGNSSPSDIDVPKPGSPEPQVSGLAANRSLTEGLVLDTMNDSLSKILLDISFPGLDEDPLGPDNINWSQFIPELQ
Put plainly: peptide or protein array; Human ProtoArray Version 5.0 (~9500 recombinant proteins printed) probed with 80 ug purified His-SETD3 in probing buffer (0.1% Tween 20, 1% BSA, 10% PBS), 1.5 h; detected with anti-SETD3 and Alexa Fluor 647 anti-rabbit IgG; BSA-probed array as negative control; hits Z-score >3; two independent experiments; both purified.

The target of assay [2] is T3, endogenous FoxM1 (whole cell lysate, cells not named) (human (endogenous; all cell lines of the paper are human)) (UniProt Q08050).
T3 sequence: T2 sequence
As to the kind of experiment: co-IP; endogenous proteins; cells lysed in RIPA buffer; pre-cleared lysate incubated overnight at 4 C with FoxM1 antibody on protein A/G beads or beads only as control; western blot. For orientation: A western blot detects proteins with antibodies after separation by electrophoresis.

For a further assay, the target named is T4, FLAG-FoxM1 (UniProt Q08050).
T4 sequence: T2 sequence
Put plainly: co-IP; protein-protein ChIP: transfected HEK-293T cells cross-linked, soluble chromatin fraction immunoprecipitated with FLAG M2 beads, western blot; empty plasmid as control; normoxic and hypoxic conditions (Fig. 7A).

Assay [3] deals with T5, recombinant His-sumo-FoxM1 (UniProt Q08050).
T5 sequence: T2 sequence
Put plainly: ELISA; 2 ug His-sumo-FoxM1 coated on the plate, blocked with 3% BSA in PBST, 0.5 ug His-sumo-SETD3 added for 1 h; detected with anti-SETD3 and HRP secondary, A450; signal normalized to BSA; both purified.

No constants are given. Whether binding was seen depends on the method and setting. For some assays here: Binding seen in cells or lysates may run through a third protein. Some results given as binding are weak or reduced against the parent protein; the word gives no strength. For some assays here: Where a sequence is shown, tags or fusion partners need not be part of it.

B1: endogenous FoxM1 (HEK-293T chromatin fraction) (protein, UniProt Q08050 1-763)
chain: T2 sequence
For the molecule B1, the binding entry with FLAG-SETD3 is given as “binds”.

B2: recombinant His-SETD3 (enzyme, UniProt Q86TU7 1-594)
chain: T1 sequence
As for B2, the binding result in assay [1] is reported as “binds”.

B3: endogenous SETD3 (whole cell lysate, cells not named) (enzyme, UniProt Q86TU7 1-594)
chain: T1 sequence
In the case of B3, the binding result in assay [2] is “binds”.

B4: HA-SETD3 (enzyme, UniProt Q86TU7 1-594)
chain: T1 sequence
With B4, in the assay with FLAG-FoxM1, the binding result is reported as “binds”.

B5: recombinant His-sumo-SETD3 (enzyme, UniProt Q86TU7 1-594)
chain: T1 sequence
Consider B5, for which the binding result in assay [3] is recorded as “binds”.
